The results in this text go back to PubChem BioAssay AID2685 (National Center for Advancing Translational Sciences (NCATS), 2010).

The nature of the assay: qHTS Assay for Lipid Storage Modulators in Drosophila S3 Cells.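 For cell number change: cells counted by Cell Tracker Red CMTPX staining in the red channel.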 The following applies: BODIPY lipid droplet fluorescence, 18-24 h; for cell number change: measured here: cell count max response, cells fed with added oleic acid. The method in brief: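 Drosophila S3 cells loaded with oleic acid (400 uM, as added) and compounds at several concentrations; lipid droplets imaged by 488-nm laser-scanning cytometry, 500–530 nm intensity and object ratio to cell channel. Percent activity normalized to 20 uM Triacsin C.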
In general terms: qHTS replaces the single test concentration by a dilution series.

[1] abbreviates: measured here: cell number channel AC50, cells fed with added oleic acid.
Setting [2] is: measured here: lipid fluorescence (Fed channel) AC50, cells fed with added oleic acid.

The list shows a part of the results. These are further read-outs of the screen, such as a control signal, another cell line or another target. No call is given for them. The list favours compounds with an active or inconclusive main result. Potencies come from curve fits of mixed quality, noted in brackets.

Consider `CCOc1ccc(CNC(=O)C2CCN(c3nnc(C)c4c(C)n(-c5ccc(C)cc5)nc34)CC2)cc1`, for which the cell number change was 51.5%. Further, the AC50 (as a rule, the midpoint of the concentration-response curve, whichever way the signal moves) under setting [1] is 29.1 µM [rising, single point]. Moreover, under setting [2], the AC50 is 29.1 µM [falling, single point].

Regarding `O=C(NCCCCO)C(F)(F)C(F)(F)C(F)(F)C(=O)NCCCCO`, the cell number change came out at 35.8%. Further, under setting [1], the AC50 is 11.6 µM [rising, partial curve].

With `O=C(NCc1ccco1)c1cc(-c2ccccn2)nc2ccccc12`, the cell number change is -7.01%. Further, the AC50 under setting [2] was 0.00461 µM [rising, full curve, poor fit].

Regarding `Nc1cc(N2CCCC2)c(Cl)cc1[N+](=O)[O-]`, the cell number change is -42.6%. The AC50 under setting [2] was 18.4 µM [falling, single point].

For the compound `O=C(Nc1ccccc1C(=O)N1CCOCC1)c1cc2ccccc2o1`, the cell number change was -23.6%. Moreover, under setting [2], the AC50 was 7.31 µM [falling, partial curve, poor fit].

As to `CC(C)C(=O)N=C1SC2CS(=O)(=O)CC2N1Cc1ccccc1` (stereo not given), the AC50 under setting [1] was 0.411 µM [rising, partial curve, poor fit].

As for `CC(C)n1c(=S)[nH]c2ccccc21`, the cell number change stood at 51.6%. Under setting [2], the AC50 is 6.51 µM [falling, partial curve, poor fit].

With `Cc1ccc(S(=O)(=O)c2nc(S(C)(=O)=O)sc2N2CC(C)OC(C)C2)cc1` (stereo not given), the cell number change is -15.6%. The AC50 under setting [2] is 29.1 µM [falling, single point].

`COc1ccc(NC(=O)N[C@@H](Cc2ccccc2)C(=O)NN)cc1`: the cell number change is 24%. Further, the AC50 under setting [2] is 14.6 µM [rising, partial curve].

For the compound `Cc1ccc(C)c(CN2CCNC2=O)c1`, the cell number change is -24.4%. Also, the AC50 under setting [1] is 2.31 µM [falling, full curve, poor fit].

For the compound `O=c1c2ccccc2nc(-c2cccc(Cl)c2)n1O`, the cell number change turned out to be 125%. Besides, under setting [1], the AC50 is 29.1 µM [rising, single point].

For the compound `COc1ccc(CC(=O)OCC(=O)Nc2ccc3c(c2)OCO3)cc1OC`, the AC50 by setting is: under setting [1], 0.103 µM [rising, full curve]; under setting [2], 0.13 µM [rising, partial curve, poor fit].

In the case of `COC(=O)c1cccc(NC(=S)Nc2ccc(Cl)c(Cl)c2)c1`, the cell number change is -24.7%. Also, the AC50 under setting [2] is 29.1 µM [falling, single point].

Take `CCOC(=O)c1ccc(S(=O)(=O)N2CCN(C3CC(=O)N(c4ccccc4C(F)(F)F)C3=O)CC2)cc1` (stereo not given): the cell number change was -16.7%. For the same compound, the AC50 under setting [2] is 20.6 µM [falling, single point].

For the compound `COc1ccc(NC(=O)CNC(=O)Cn2cnc3sc4c(c3c2=O)CCCC4)cc1OC`, the cell number change amounted to 0.659%. In addition, the half-maximal activity concentration (AC50) under setting [2] is 6.51 µM [rising, single point].

As to `Cc1ccc(S(=O)(=O)Nc2cc(S(=O)(=O)N3CCCCC3)ccc2N2CCOCC2)cc1`, the cell number change is -58.8%. Further, the AC50 under setting [1] was 0.146 µM [falling, full curve]. For the same compound, the AC50 under setting [2] is 0.184 µM [falling, full curve].

Turning to `COC(=O)COc1ccccc1C(N)=O`, the cell number change came out at 23.8%. Also, the AC50 under setting [2] is 3.66 µM [falling, single point].

On to `O=C(Nc1ccc(Br)cc1F)c1ccc2nsnc2c1`, for which the cell number change amounted to 26.9%. Besides, the half-maximal activity concentration (AC50) under setting [2] is 6.51 µM [falling, single point].

Turning to `O=C(OCCc1cc2ccccc2c(=O)o1)c1ccco1`, the cell number change is -16.3%. Besides, the AC50 under setting [1] was 1.03 µM [falling, single point]. Besides, under setting [2], the AC50 was 9.2 µM [falling, single point].

As to `O=C(NNC(=O)c1ccc(SCC2CCCO2)c([N+](=O)[O-])c1)c1ccc(Cl)c([N+](=O)[O-])c1` (stereo not given), the cell number change turned out to be 10.3%.

In the case of `CCC(c1nnnn1Cc1ccco1)N(CCc1ccccc1)Cc1cc2ccc(OC)cc2[nH]c1=O` (stereo not given), the cell number change turned out to be 67.5%. In addition, the AC50 under setting [1] was 18.4 µM [rising, single point]. For the same compound, under setting [2], the AC50 was 2.31 µM [rising, partial curve].

With `O=C(N/N=C/c1cccnc1)c1cc(-c2ccc(Br)cc2)nc2ccccc12`, the cell number change is -1.16%. The AC50 under setting [2] is 2.91 µM [rising, single point].

As to `c1ccc(-n2ncc3c(NC4CCCCCC4)ncnc32)cc1`, the cell number change was -41%. Moreover, the AC50 under setting [1] was 18.4 µM [falling, single point]. Also, the AC50 under setting [2] is 29.1 µM [falling, single point].

Consider `COC(=O)c1cc(S(=O)(=O)NCc2ccccc2)cn1C`, for which the cell number change was 4.9%. Moreover, the AC50 under setting [2] is 7.31 µM [rising, partial curve, poor fit].

With `COc1ccc(C(=O)NCc2nnc(SCC(=O)Nc3ccc4c(c3)OCO4)o2)cc1`, the cell number change amounted to 16.1%. Also, under setting [1], the AC50 is 0.82 µM [rising, full curve, poor fit].

Turning to `CCCCSc1nnc([C@H](CC(C)C)NC(=O)OC(C)(C)C)o1`, the cell number change is 12%. Under setting [2], the AC50 is 29.1 µM [falling, single point].

Regarding `Cc1cc(C(=O)NCC(=O)OCC(=O)N(C(C)C)C(C)C)ccc1[N+](=O)[O-]`, the cell number change worked out at 8.9%. For the same compound, the AC50 under setting [2] was 0.651 µM [rising, full curve, poor fit].

Regarding `COc1ccc(C(=O)CCN2CCc3cc(OC)c(OC)cc3C2)cc1`, the cell number change was -19.4%. Also, the AC50 under setting [1] was 0.13 µM [falling, full curve, poor fit]. Moreover, under setting [2], the AC50 is 0.326 µM [falling, partial curve, poor fit].

`O=C(Nc1cccc2cccnc12)c1ccc(Cl)cc1`: the cell number change is -6.32%.

`Cc1ccc(-n2ncc(C#N)c2/N=C/N2CCN(C)CC2)cc1`: the AC50 under setting [2] was 2.31 µM [rising, partial curve].

On to `COc1cc(NC(=S)N2CCC(C(N)=O)CC2)cc(OC)c1`, for which the cell number change worked out at 1.41%. The AC50 under setting [2] was 0.103 µM [falling, full curve, poor fit].

As for `COc1ccc(C(=O)Nc2cc3c4c(c2)C(C)C(=O)N4CCC3)cc1` (stereo not given), the AC50 under setting [1] is 0.517 µM [rising, full curve, poor fit].

Turning to `CN(Cc1cn(C)nc1-c1cccc(Cl)c1)C1CCOCC1`, the cell number change is -0.392%.

On to `CC(=O)N1CCc2cc(S(=O)(=O)CCC(=O)NCCc3ccc(Cl)cc3)ccc21`, for which the AC50 under setting [2] is 2.06 µM [falling, partial curve].

Consider `O=C(O)c1ccc2c(c1)C(=O)N(c1ccc([N+](=O)[O-])cn1)C2=O`, for which the cell number change is 17.6%. Under setting [2], the AC50 was 5.8 µM [rising, partial curve, poor fit].

On to `COc1ccc(C2Nc3ccccc3C(=O)N2C2CCCCC2)cc1` (stereo not given), for which the cell number change is 21.6%. Under setting [2], the AC50 is 0.92 µM [falling, partial curve].

On to `COc1ccccc1OCCCN1C(=O)C(=O)c2cccc(C)c21`, for which the cell number change was -17%. The AC50 under setting [2] is 32.6 µM [falling, single point].

Regarding `CSc1nc2nc3c(cc2c(=O)n1-c1ccccc1C)COC(C)(C)C3`, the cell number change is -14.6%. Moreover, the AC50 under setting [2] is 0.00731 µM [falling, full curve, poor fit].

As for `Cc1ccccc1NC(=O)C(c1ccccc1)C1CCCC1` (stereo not given), the cell number change is 17.7%. In addition, under setting [2], the AC50 is 29.1 µM [falling, single point].

With `CCCN(CC(=O)Nc1ccccc1OC)C(=O)c1ccc(S(=O)(=O)NCc2ccco2)cc1`, the cell number change is -10.5%. For the same compound, under setting [2], the AC50 is 6.51 µM [falling, single point].

For `CNC(=O)c1cc(C)c(-c2ccccc2)s1`, the AC50 runs as follows: under setting [1], 6.51 µM [rising, single point]; under setting [2], 4.11 µM [rising, partial curve].

Take `O=S(=O)(NCc1cn2ccccc2n1)c1ccccc1F`: the cell number change is -20.8%. In addition, the AC50 under setting [1] was 7.31 µM [falling, single point]. The AC50 under setting [2] is 4.11 µM [falling, full curve].

`COc1cc(Cl)c(C)cc1NC(=O)CSc1nnc(-c2cccnc2)n1Cc1ccco1`: the cell number change was 28.3%. Under setting [1], the AC50 was 0.92 µM [rising, partial curve]. For the same compound, the AC50 under setting [2] is 6.51 µM [rising, partial curve].

On to `Cc1cc(C(=O)Nc2nc3ccc(S(C)(=O)=O)cc3s2)c(C)o1`, for which the cell number change is -43.2%. The AC50 under setting [1] was 29.1 µM [falling, single point]. The AC50 under setting [2] was 32.6 µM [falling, partial curve, poor fit].

As to `CCOc1ccc(C(=O)NNC(=O)c2cc(C)oc2C)cc1`, the cell number change worked out at 50%. The AC50 under setting [1] was 23.1 µM [rising, single point]. Under setting [2], the AC50 is 6.51 µM [falling, single point].

Turning to `CCCC[C@@H](CNC)NC[C@H](NCCCCC1CCCCC1)C(C)C`, the cell number change was found to be 17.5%. For the same compound, the AC50 under setting [2] is 0.164 µM [rising, full curve, poor fit].

In the case of `O=C(CSc1nnc(SCc2ccc(Cl)cc2)s1)N1CCOCC1`, under setting [2], the AC50 was 16.4 µM [falling, single point].

On to `O=C(O)c1ccc(CS(=O)(=O)c2ccc(Br)cc2)cc1`, for which, under setting [2], the AC50 was 6.51 µM [rising, single point].

For `CCn1cc(C2=NOC(C(=O)Nc3ccc4c(c3)OCO4)C2)c(C)n1` (stereo not given), under setting [2], the AC50 was 8.2 µM [falling, partial curve].

As to `C=CCn1c(=NC(=O)C2COc3ccccc3O2)sc2cc(S(N)(=O)=O)ccc21` (stereo not given), the cell number change worked out at 15.9%. Further, the AC50 under setting [1] is 0.092 µM [rising, full curve, poor fit].

In the case of `CCc1nnc(NC(=O)CSc2nccn2-c2ccccc2)s1`, the cell number change came to 21.3%. Moreover, the AC50 under setting [2] is 10.3 µM [rising, partial curve].

For the compound `O=C(NCC(O)c1ccc([N+](=O)[O-])cc1)c1cccc(S(=O)(=O)N2CCOCC2)c1` (stereo not given), the cell number change was -0.697%.

On to `COC(=O)c1nn(-c2ccccc2)c2nnc(Cc3ccc(C)cc3)c(=O)n12`, for which the cell number change was found to be 12.1%. Further, under setting [2], the AC50 was 0.0206 µM [rising, single point].

With `CCN(CC(=O)N1CCCC1)S(=O)(=O)c1cc(C)ccc1OC`, the cell number change was 11.7%. Also, under setting [2], the AC50 was 0.731 µM [falling, single point].

Consider `Cc1cccc(NC(=O)N2CCC(C(=O)c3ccc(F)cc3)CC2)c1`, for which the cell number change was -9.21%. Besides, under setting [2], the AC50 was 35.5 µM [falling, single point].

`COc1ccc(-n2c(COc3ccccc3)nnc2SCc2ccc(C#N)cc2)cc1`: the cell number change was 148%. In addition, under setting [1], the AC50 is 6.51 µM [rising, partial curve]. Besides, the AC50 under setting [2] is 1.84 µM [rising, partial curve].

In the case of `Nc1c(C(=O)Nc2ccc(Br)cc2)sc2nc(-c3ccco3)ccc12`, the cell number change was -57%. Also, under setting [1], the AC50 is 11.6 µM [falling, partial curve]. In addition, under setting [2], the AC50 is 16.4 µM [falling, partial curve].
